These results are taken from paper doi:10.1101/2020.08.10.244889.

These are yes or no findings as the source states them, for the method shown. For part of these data: A result given as binding can be weak or reduced; the word gives no strength. For part of these data: Binding seen in cells or lysates may run through a third protein. For part of these data: Where a sequence is shown, tags or fusion partners need not be part of it.

The target of assay [1] is T1, MBP-MKK2 (recombinant maltose binding protein fusion) (Arabidopsis thaliana) (UniProt Q9S7U9).
T1 sequence: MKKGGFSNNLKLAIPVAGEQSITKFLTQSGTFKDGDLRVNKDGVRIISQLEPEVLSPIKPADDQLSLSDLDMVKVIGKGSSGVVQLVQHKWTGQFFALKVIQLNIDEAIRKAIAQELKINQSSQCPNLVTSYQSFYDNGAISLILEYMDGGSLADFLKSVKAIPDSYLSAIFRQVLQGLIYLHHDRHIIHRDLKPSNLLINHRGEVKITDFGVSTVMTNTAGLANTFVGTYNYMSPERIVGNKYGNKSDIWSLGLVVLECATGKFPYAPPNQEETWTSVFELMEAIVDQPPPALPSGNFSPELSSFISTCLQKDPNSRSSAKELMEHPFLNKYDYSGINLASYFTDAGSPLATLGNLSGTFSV
Put plainly: pull-down.

The target in assay [2] is T2, MBP-MKK1 (recombinant maltose binding protein fusion) (Arabidopsis thaliana) (UniProt Q94A06).
T2 sequence: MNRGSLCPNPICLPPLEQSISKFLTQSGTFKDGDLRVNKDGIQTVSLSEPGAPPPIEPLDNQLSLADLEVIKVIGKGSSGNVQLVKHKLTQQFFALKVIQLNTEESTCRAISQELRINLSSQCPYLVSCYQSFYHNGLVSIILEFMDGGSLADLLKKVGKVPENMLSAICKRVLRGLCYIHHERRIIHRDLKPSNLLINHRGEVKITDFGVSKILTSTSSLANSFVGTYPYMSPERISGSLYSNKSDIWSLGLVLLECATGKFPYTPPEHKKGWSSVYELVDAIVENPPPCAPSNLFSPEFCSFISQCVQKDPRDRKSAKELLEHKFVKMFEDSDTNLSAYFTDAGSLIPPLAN
Put plainly: pull-down.

Assay [3] deals with T3, MBP-MKK3 (recombinant maltose binding protein fusion) (Arabidopsis thaliana) (UniProt O80396).
T3 sequence: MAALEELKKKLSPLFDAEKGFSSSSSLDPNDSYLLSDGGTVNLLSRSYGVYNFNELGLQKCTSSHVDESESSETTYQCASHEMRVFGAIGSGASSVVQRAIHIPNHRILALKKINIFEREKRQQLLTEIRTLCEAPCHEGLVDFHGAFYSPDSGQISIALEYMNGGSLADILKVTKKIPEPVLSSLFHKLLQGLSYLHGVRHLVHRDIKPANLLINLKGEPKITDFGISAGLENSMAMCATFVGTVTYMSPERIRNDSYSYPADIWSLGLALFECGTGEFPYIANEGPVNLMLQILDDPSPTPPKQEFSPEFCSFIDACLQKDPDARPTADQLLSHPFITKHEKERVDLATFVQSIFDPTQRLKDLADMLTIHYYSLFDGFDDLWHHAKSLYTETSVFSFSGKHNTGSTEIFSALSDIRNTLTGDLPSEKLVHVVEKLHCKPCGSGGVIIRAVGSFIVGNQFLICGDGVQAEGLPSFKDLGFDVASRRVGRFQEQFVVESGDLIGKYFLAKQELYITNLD
Put plainly: pull-down.

Assay [4] has as its target PM19L1 81 N-G (non-conserved residue of the intracellular loop), split-ubiquitin bait (Arabidopsis thaliana) (UniProt O23029). Put plainly: two-hybrid.
The target of assay [5] is PM19L1 (Arabidopsis AWPM-19 protein encoded by AT1G04560), split-ubiquitin bait (Arabidopsis thaliana) (UniProt O23029). Put plainly: two-hybrid.

As for “PM19L1-GFP (pCaMV35S:PM19L1-GFP) (from UniProt O23029)”, the figures for the binding result in assay [1], in assay [2] and in assay [3] were “binds”, “no binding” and “binds”, respectively.

B1: Arabidopsis MAP kinase kinase MKK1, split-ubiquitin prey (enzyme, UniProt Q94A06 1-354)
chain: T2 sequence
Turning to B1, the results for the binding entry in assay [4] and in assay [5] were “no binding” and “binds weakly”, respectively.

B2: Arabidopsis MAP kinase kinase MKK2, split-ubiquitin prey (enzyme, UniProt Q9S7U9 1-363)
chain: T1 sequence
In the case of B2, the binding entry in assay [4] and in assay [5] was “binds” each time.

B3: Arabidopsis MAP kinase kinase MKK3, split-ubiquitin prey (enzyme, UniProt O80396 1-520)
chain: T3 sequence
Regarding B3, the binding result in assay [4] and in assay [5] was “binds” throughout.
